Results: patent US20080234202A1, “Non-natural amino acids and neurotensin analogues” (priority 2004, published 2008)

Sequences of proteins named here, by UniProt entry; tags and fusion partners are left off.
UniProt P20789, whole entry: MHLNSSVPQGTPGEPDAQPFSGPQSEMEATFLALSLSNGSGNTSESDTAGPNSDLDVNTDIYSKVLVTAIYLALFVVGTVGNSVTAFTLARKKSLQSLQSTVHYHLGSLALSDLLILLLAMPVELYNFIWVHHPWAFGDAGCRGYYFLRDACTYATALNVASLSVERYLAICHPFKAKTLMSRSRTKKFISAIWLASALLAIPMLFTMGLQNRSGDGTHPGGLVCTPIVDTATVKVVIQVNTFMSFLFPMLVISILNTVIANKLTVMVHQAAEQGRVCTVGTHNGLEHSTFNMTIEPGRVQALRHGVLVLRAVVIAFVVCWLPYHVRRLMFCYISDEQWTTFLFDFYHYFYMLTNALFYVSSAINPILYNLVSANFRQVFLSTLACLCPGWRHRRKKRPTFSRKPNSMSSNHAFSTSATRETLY

Biological target: NTR-1 (Rattus norvegicus, UniProt P20789)
Assay: Hypothermia induction in rats (rectal temperature)
Format: in vivo

Question: Which results are given for `CC(C)C[C@H](NC(=O)[C@@H](NC(=O)[C@H](Cc1ccc(O)cc1)NC(=O)[C@@H]1CCCN1C(=O)[C@H](CCCNC(=N)N)NC(=O)[C@H](CCCCCN)N=[N+]=[N-])C(C)(C)C)C(=O)O` [ABS13, N3-L-homolysine-Arg-Pro-Tyr-tertLeu-Leu-COOH]?
Answer: IP Dose tmax (IP 5 mg/kg, Table 9): 150 min; IP Dose Δ in BT (° C.) (IP 5 mg/kg, at tmax, Table 9): −4.26 °C; Oral Dose tmax (oral 20 mg/kg): 90 min; Oral Dose Δ in BT (° C.) (oral 20 mg/kg, at tmax): −1.66 °C
